{"source": "PubChem BioAssay AID1487", "about": "(National Center for Advancing Translational Sciences (NCATS), 2009)", "note": "About 25 (0.01%) of roughly 200,000 compounds were called active. This list was built around the results that the source calls inconclusive (neither active nor inactive); the mix of calls is not that of the screen. Calls come from the whole dose curve; as a rule, active = well fitted inhibition curve with a large enough effect in the signal ratio, with a control signal flat (not every such curve was filed as active); inconclusive = small, poorly fitted or top-dose-only effect, or effect the other way, or a change in a side signal; inactive = flat fitted curve, though single readings scatter; the % refers to the signal ratio. Potencies of inconclusive entries are doubtful fits and often do not repeat. % is set by controls: 0 for no effect and ±100 for the full control effect; potency is the fitted concentration of half-maximal effect."}
{"assay": "qHTS Assay for Modulators of Lamin A Splicing", "conditions": "HeLa LMNA splicing GFP/RFP minigene ratio, 48 h; ratio change, negative = inhibition: at 46.1 µM (top of the series) unless noted", "outline": "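S3 HeLa cells stably expressing lamin A-EGFP splicing minigene plus DsRed2, 600 cells/well, 48 h compound exposure at 37C. Laser-scanning cytometry; analysed as GFP (500-530 nm)/RFP (575-640 nm) total intensity ratio; 0.5% DMSO vehicle.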"}
{"smiles": "Cc1cccc(-n2c(SCC(N)=O)nc3c(c2=O)C2(CCCCC2)Cc2ccccc2-3)c1", "ratio change, negative = inhibition": "inconclusive: -32.7%"}
{"smiles": "CC1CCN(CC(O)COC2CC(C)CCC2C(C)C)CC1", "note": "(stereo unspecified)", "Potency": "inconclusive: 0.562 µM [inhibitor, partial curve]"}
{"smiles": "CCN(C(=O)CSc1nc2ccccc2n1CC(=O)NCc1ccc(OC)cc1)c1ccccc1", "ratio change, negative = inhibition": "inconclusive: 7.29% [at 46 µM]"}
{"smiles": "CNC(=O)C1CCC(Cn2c(=O)c3sccc3n(CC(=O)NCc3cccc(OC)c3)c2=O)CC1", "note": "(stereo unspecified)", "ratio change, negative = inhibition": "inconclusive: -5.48% [at 46 µM]"}
{"smiles": "CC(C)CC(C(=O)NC1CCCC1)N(Cc1cccs1)C(=O)c1snc(C(N)=O)c1N", "note": "(stereo unspecified)", "ratio change, negative = inhibition": "inactive: -0.202%"}
{"smiles": "CCCCCCCC/C=C\\CCCCCCCC(=O)NCCO", "Potency": "inconclusive: 12.6 µM [activator, partial curve]"}
{"smiles": "CS(=O)(=O)N(CC(=O)N1CCOCC1)c1cccc([N+](=O)[O-])c1", "ratio change, negative = inhibition": "inconclusive: 10.1% [at 46 µM]"}
{"smiles": "OCCN(Cc1ccccc1)Cc1ccc(Cl)cc1Cl", "ratio change, negative = inhibition": "inactive: -1.16%"}
{"smiles": "CCn1c(=O)cc(SCC(=O)NCc2ccco2)c2ccccc21", "ratio change, negative = inhibition": "inconclusive: -21.7%"}
{"smiles": "CN=CC1=C(O)CC(C)(C)CC1=O", "ratio change, negative = inhibition": "inactive: 3.1%"}
{"smiles": "O=C(O)c1ccccc1C(=O)Nc1ccc(Oc2ccccc2)cc1", "ratio change, negative = inhibition": "inconclusive: 41.1% [at 46 µM]"}
{"smiles": "COc1ccc(-c2cc3ccccc3oc2=O)cc1NC(=O)c1ccc([N+](=O)[O-])o1", "ratio change, negative = inhibition": "inconclusive: 27.2%"}
{"smiles": "CCOc1ccccc1NC(=O)N1CCCC(c2nc3c(nnn3Cc3ccc(C)cc3)c(=O)[nH]2)C1", "note": "(stereo unspecified)", "ratio change, negative = inhibition": "inconclusive: 18.2%"}
{"smiles": "COc1ccccc1-c1ccc2ncnc(NC3CC3)c2c1", "Potency": "inconclusive: 20 µM [inhibitor, single point]"}
{"smiles": "CCOC(=O)Oc1c(OC)cc(C(=O)O[C@H]2C[C@H]3CN4CCc5c([nH]c6cc(OC)ccc56)[C@@H]4C[C@H]3[C@@H](C(=O)OC)[C@@H]2OC)cc1OC", "ratio change, negative = inhibition": "inconclusive: -9.81%"}
{"smiles": "Cc1ccc(C)c(-c2nc(Cn3c(=O)cc(-c4ccccc4)c4c(C)nn(C)c43)c(C)o2)c1", "ratio change, negative = inhibition": "inactive: -10.6% [at 46 µM]"}
{"smiles": "CCOc1ccc(-c2nnc3n2N=C(c2ccc(OC)cc2)CS3)cc1", "ratio change, negative = inhibition": "inactive: 7.3%"}
{"smiles": "Cc1cc(C(=O)c2ccc(C(C)(C)C)cc2)c(NC(=O)CCl)s1", "ratio change, negative = inhibition": "inconclusive: -29.9%"}
{"smiles": "CCC(CC)C(=O)Nc1cccc(C(=O)NCCc2ccc(S(N)(=O)=O)cc2)c1", "ratio change, negative = inhibition": "inactive: 4.53%"}
{"smiles": "Cc1cc(C)n2c(SCC(=O)Nc3ccc(F)cc3F)nnc2n1", "ratio change, negative = inhibition": "inconclusive: -17.6% [at 46 µM]"}
{"smiles": "COc1ccc(NC(=O)c2noc3c2CCC3)cc1", "ratio change, negative = inhibition": "inactive: -3.91%"}
{"smiles": "COc1ccc(C(=O)O)c(O)c1OC", "ratio change, negative = inhibition": "inactive: 5.72%"}
{"smiles": "COc1ccc(/C=C(/C(=O)c2cccs2)N2C=CC=CC2=C(C#N)C#N)cc1", "ratio change, negative = inhibition": "inconclusive: 133%"}
{"smiles": "O=c1c(N2CCc3ccccc3C2)csc2ccc(Br)cc12", "ratio change, negative = inhibition": "inconclusive: -13.9% [at 46 µM]"}
{"smiles": "Cc1nc2c(ccc3nc(NC(=O)c4ccc(S(=O)(=O)N(C)C)cc4)sc32)s1", "ratio change, negative = inhibition": "inconclusive: 34.6%"}
{"smiles": "Cc1cccc(C(=O)Nc2ccc(N3CCN(c4ccc(F)cc4)CC3)c(C(=O)O)c2)c1", "ratio change, negative = inhibition": "inconclusive: 4.22% [at 46 µM]"}
{"smiles": "CCOc1ccc(C(=O)NCc2ccc3c(c2)CCN3C(=O)c2ccc(C)cc2)cc1OCC", "ratio change, negative = inhibition": "inconclusive: -37.4% [at 46 µM]"}
{"smiles": "COC(=O)c1scc(C)c1N/N=C(\\C)c1ccc(F)cc1F", "ratio change, negative = inhibition": "inconclusive: 5.14%"}
{"smiles": "O=C(Nc1ccc2c(c1)C(=O)N(c1ccccc1)C2=O)C1CCCO1", "note": "(stereo unspecified)", "ratio change, negative = inhibition": "inactive: 2.9%"}
{"smiles": "CN(C)CCCN(C(=O)CCc1ccccc1)c1nc2c(F)cccc2s1", "ratio change, negative = inhibition": "inconclusive: -11.7%"}
{"smiles": "CCCCn1c(/N=C/c2ccccc2NS(=O)(=O)c2ccc(C)cc2)nc2ccccc21", "ratio change, negative = inhibition": "inconclusive: -35.1%"}
{"smiles": "C=Cc1ccc(Cn2c(=O)cc(C)c3c(C)nn(C)c32)cc1", "ratio change, negative = inhibition": "inconclusive: -30.4% [at 46 µM]"}
{"smiles": "CC(C)NC(=O)c1cc2nc(-c3ccco3)cc(C(F)(F)F)n2n1", "ratio change, negative = inhibition": "inconclusive: -21.4%"}
{"smiles": "Cc1ccc(CN2C(=O)c3ccccc3Sc3ccc(C(=O)NCCCN4CCOCC4)cc32)cc1", "ratio change, negative = inhibition": "inconclusive: 149% [at 46 µM]"}
{"smiles": "Cc1ccc(C(=O)/C=C/c2ccc(-c3ccccc3[N+](=O)[O-])o2)cc1", "ratio change, negative = inhibition": "inconclusive: -25.7%"}
{"smiles": "CN(C)/C=C1\\C(=O)Nc2ccccc21", "ratio change, negative = inhibition": "inactive: -10.1%"}
{"smiles": "NC(=O)CCSC(=S)N1CCOCC1", "ratio change, negative = inhibition": "inconclusive: 13.2% [at 46 µM]"}
{"smiles": "Cc1cc(C)c2sc(N(CCN(C)C)C(=O)c3cc(Cl)sc3Cl)nc2c1", "ratio change, negative = inhibition": "inconclusive: 13.3% [at 9.22 µM]"}
{"smiles": "COc1ccc(/C(C)=N/NC(=S)NCCc2ccccc2)cc1", "ratio change, negative = inhibition": "inconclusive: -28.3% [at 46 µM]"}
{"smiles": "COc1cc(-c2nc(S(=O)(=O)c3ccc(C)cc3)c(N(C)C)o2)cc(OC)c1OC", "ratio change, negative = inhibition": "inactive: 12%"}
{"smiles": "O=C(O)c1cnc(-c2ccccc2)nc1Sc1ccccc1Cl", "ratio change, negative = inhibition": "inactive: 4.04%"}
